PubChem BioAssay AID1471 (National Center for Advancing Translational Sciences (NCATS), 2008)
Among all 230,000 compounds or so, about 310 (0.13%) were called active. Inconclusive results (about 2%) are left out. Calls follow the shape of the dose curve; as a rule, active = well fitted activation curve with a large enough effect; inconclusive = small, poorly fitted or top-dose-only effect; inactive = no such curve, though single readings can be large or run the other way. The entries are a selection whose mix differs from that of the whole data set. Entries without a call were filed so in the source.

Test: qHTS Multiplex Assay to Identify Dual Action Probes in a Cell Model of Huntington: Cytoprotection (ATP); also: nearly all actives have a fitted effect of over 45% in size;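 as to cytoprotection (ATP increase): toxic huntingtin expression switched on by the ecdysone agonist tebufenozide; % of control where 0% means no effect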
Conditions: PC12 HTT-Q103 induced, ATP luminescence, 40 h; cytoprotection (ATP increase): at 56.4 µM (top of the series) unless noted
Source text: NIH Chemical Genomics Center [NCGC]
NIH Molecular Libraries Probe Production centers Network [MLPCN]
Assay Submitter (PI): Wei Zheng
Huntington's disease is a neurodegenerative disorder caused by a trinucleotide repeat expansion in Exon 1 of the Huntingtin gene. The CAG trinucleotide encodes glutamine and polyglutamine expansions cause cell death in selective areas of the brain. Huntington polyglutamine repeats have the tendency to form aggregates which are observable in later stages of the disease. The exact nature of the aggregates, whether toxic, protective, or insignificant, is unclear.
A stable PC12 cell line containing a gene fusion of Exon 1 of the Huntingtin gene linked to GFP under the control of the inducible ecdysone promoter were used as the cell-based model of Huntington Disease for high throughput screening. Exon 1 of the Huntingtin gene contained an expansion of 103 polyglutamines (Q103) which, when expressed, caused cell death and distinct, bright GFP aggregates. The amount of cell death and the size and intensity of GFP aggregates increased over time and induction level. The cell death were quantified with a measurement of ATP content in the cells. A maximal 40-50% of cell death was observed when the Huntington gene was induced in this cell line.
We optimized this assay in a homogeneous 1536 well format. A quantitative high throughput screen (qHTS) was conducted on the PC12 cells which were induced to express the toxic fusion construct. Small molecules which prevented cell death were identified by using a luminescent ATP quantification method (Perkin Elmer's ATPlite).
PC12 cells stably containing a construct with an ecdysone inducible promoter expressing GFP fused to the exon 1 of HTTQ103 (Huntington protein which containing a 103 ployglutamine expansion) were used.
NCGC Assay Protocol Summary:
Sequence, Parameter, Description
1, Reagent, 5 uL 1500 cells/well 1536 TC treated White clear bottom plate
2, Compound, 23 nL Tebufenozide inducer (100 nM final) to all columns
3, Compound, 23 nL 40 uM to 0.5 nM Libraries
5, Reagent, 5 ul ATPLite cell death assay reagent
6, Detector, 4 sec integration with a Viewlux Luminescent
Media consisted of phenol red free DMEM + 5% equine serum (Hyclone # SH30072.03 ), 5% supplemented Bovine Calf Serum (Hyclone # SH30074.03 ), 1x pen/strep, no G418
Control columns: 1 = DMSO, 2= 2 uM teb dilns (1:1), 4 = 100 nM Teb inducer. Sample columns received 100 nM Teb.
Potency is read from the fitted curve at half-maximal effect.

SMILES | Potency | cytoprotection (ATP increase)
Oc1ccc(Cl)cc1N=Cc1sc2ccccc2c1Cl | active: 2.24 µM | –
COc1cc(/C=C/C(=O)N2CCC=CC2=O)cc(OC)c1OC | – | -339%
O=c1cc(-c2ccccc2Cl)oc2cccc(O)c12 | – | -44% [at 96.6 µM]
O=C1NCC(c2ccccc2)C1C(=O)N/N=C/c1ccc(Cl)s1 (stereo not given) | – | 24.3% [at 10 µM]
COC[C@H]1O[C@@H](c2c(OC)cc(OC)cc2OC)[C@H](OC)[C@@H](OC)[C@@H]1OC | – | -40.5%
C=C1c2c(Cl)ccc(O)c2C(O)=C2C(=O)[C@]3(O)C(O)=C(C(N)=O)C(=O)C(N(C)C)C3C(O)C12 (stereo not given in full) | – | -193%
CC[C@@H]1C(c2cccc(C)c2)=NN(c2ccc(Br)cc2)[C@H]1C(=O)N1CCOC1=O | – | 34.3%
COC(=O)C1=C(C)N(Cc2ccccc2)C(=O)N[C@@H]1c1ccccc1 | – | -0.169%
O=C1OCCN1C(=O)[C@H]1[C@H](c2ccc(Cl)cc2)C(c2cccc(Cl)c2)=NN1c1ccc(Br)cc1 | – | -211% [at 40.3 µM]
O=C(Nc1nc2ccccc2s1)c1ccc(F)cc1 | – | 351% [at 10 µM]
C=C1C(=O)[C@]23[C@H](O)[C@H]1CC[C@H]2[C@@]12COC3(O)[C@H](O)[C@@H]1C(C)(C)CC[C@@H]2O | – | -351%
O=C(Nc1ccc(CSc2ccccc2)cc1)c1ccc(CN2CCOCC2)cc1 | – | 160% [at 10 µM]
CCn1cc(C(=O)N2CCN(c3ccccn3)CC2)c(=O)c2cc(S(=O)(=O)N(C)C3CCCCC3)ccc21 | – | -35.5%
O=C(COC(=O)C1CC1)c1c[nH]c2ccccc12 | – | 359% [at 10 µM]
COc1ccccc1[C@@H]1C(c2cccc(Cl)c2)=NN(c2ccc(Br)cc2)[C@H]1C(=O)N1CCOC1=O | – | -56% [at 40.3 µM]
COc1ccccc1OCC(O)COC(N)=O (stereo not given) | – | -51.3%
O=C(NN=C1CCCCC1)c1cc(-c2ccccc2)n[nH]1 | – | 180% [at 10 µM]
C[C@@H]1C(=O)OC2C[C@@]34[C@H]5C[C@@H](C(C)(C)C)[C@@]36C(O)C(=O)O[C@H]6O[C@@]4(C(=O)O5)[C@]21O (stereo not given in full) | – | -177%
O=C(NCc1ccccc1)C1COc2ccccc2O1 (stereo not given) | – | 357% [at 1.9 µM]
COc1ccc([N+](=O)[O-])cc1NC(=O)C1(c2ccccc2)CCOCC1 | – | -40.4%
O=C(c1ccc(Cl)cc1[N+](=O)[O-])N1CCOCC1 | – | -52.3%
COC(=O)c1cccc(NC(=O)CCSc2ccc(Cl)cc2)c1C | – | 127%
Nc1ccccc1C(=O)C[C@@H](N)C(=O)O | – | -10.8%

SMILES | Potency | cytoprotection (ATP increase)
COc1ccc(/C=C/C(=O)c2ccc(O)cc2O)cc1OC | – | 113%
CC(=O)[C@H]1[C@H](C#N)CC2C3CC=C4C[C@@H](O)CCC4(C)C3CCC21C (stereo not given in full) | – | 9.12%
Cc1nnc(N2C(=O)c3oc4ccccc4c(=O)c3C2c2ccco2)s1 (stereo not given) | – | 269% [at 10 µM]
Cn1nccc1C(=O)Oc1ccc(/C=N/NC(=O)c2ccccc2O)cc1 | active: 0.891 µM | –
CCOC(=O)C1=C(C(F)(F)F)Nc2ncnn2C1c1cccc(OC)c1OC (stereo not given) | – | 154% [at 10 µM]
CN(C)c1ccc(O)c2c1C[C@@H]1C[C@H]3C(N(C)C)C(=O)C(C(N)=O)=C(O)[C@@]3(O)C(=O)C1=C2O (stereo not given in full) | – | -46.9%
OC[C@@H]1[C@@H](c2ccccc2)C(c2cccc(Cl)c2)=NN1c1ccccc1 | – | -306%
O=C(CC12CC3CC(CC(C3)C1)C2)NCC(=O)OCc1cc(=O)oc2ccc3ccccc3c12 | – | 353% [at 10 µM]
CC(=O)/C(=N/Nc1ccccc1[N+](=O)[O-])N1CCCc2ccccc21 | – | 252% [at 10 µM]
Cc1cc(C)cc(NC(=O)OCCN2CCN(Cc3ccccc3)CCC2=O)c1 | – | -198%
C=C(C)C(=O)/C=C/c1ccc(C(F)(F)F)cc1 | – | 28.7%
COCCN1C(=O)N[C@H](c2cccc(C(F)(F)F)c2)C(C(=O)OC)=C1C | – | 26.9%
COC(=O)C1=C(C)N=c2s/c(=C3\C(=O)Nc4ccccc43)c(=O)n2C1c1ccccc1 (stereo not given) | – | 339% [at 10 µM]
COC(=O)C1(C(=O)OC)Cc2conc2[C@H]1c1ccccc1 | – | 22.4%
CC(=O)OC1CC2C(C)(C)C(=O)CC[C@]2(C)C2CC[C@]3(C)C(=CC(=O)OC3c3ccoc3)[C@]12C (stereo not given in full) | – | -56.5%
CN(C)CCCN(Cc1ccccc1)C(=S)Nc1cccc(C(F)(F)F)c1 | – | 337% [at 10 µM]
CCOc1ccc(S(=O)(=O)n2ccc(C)n2)c2ccccc12 | – | 238% [at 10 µM]
O=C1OCCN1C(=O)[C@H]1[C@H](c2ccc([N+](=O)[O-])cc2)C(c2ccccc2)=NN1c1ccccc1 | – | -34.4%
CC1CCCN(C(=O)COc2ccc(NC(=O)c3cccs3)cc2)C1 (stereo not given) | – | -83.7%
COc1ccc(C(=O)CSc2cc(C)nc3nc(C)nn23)cc1OC | active: 12.6 µM | –
CSc1ccc2c(c1)N(CCC1CCCCN1C)c1ccccc1S2 (stereo not given) | – | -265%
CC[C@H]1C(c2cccc(C)c2)=NN(c2ccccc2)[C@@H]1CO | – | -45.2%

Single records, from the list above. Order of values: Potency | cytoprotection (ATP increase)
CC[C@H]1C(c2cccc(C)c2)=NN(c2ccccc2)[C@@H]1CO is listed as – | -45.2%
CC(=O)OC1CC2C(C)(C)C(=O)CC[C@]2(C)C2CC[C@]3(C)C(=CC(=O)OC3c3ccoc3)[C@]12C (stereo not given in full) is listed as – | -56.5%
Cc1cc(C)cc(NC(=O)OCCN2CCN(Cc3ccccc3)CCC2=O)c1 is listed as – | -198%
